# Source: the supplement of paper PMC8256030
# “And” between values parts separate entries of the source, which are not always exact repeats. Equal values may be shown once. Where a name gives a salt, the structure may show the parent alone. Some of the results follow. Single values are uncertain here, since repeats match poorly.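 HEK293T cells were given each compound shortly before transfection with a reporter in which red mCherry is followed by the SARS-CoV-2 frameshift element and then GFP in the −1 frame, so GFP appears only after frameshifting.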
# Assays:
# [1] = tested on: SARS-CoV-2 -1 PRF reporter mCherry-FSE-GFP(-1); test: mCherry (red) intensity as percent of control; higher = higher upstream reporter expression; details: 10 µM; 24 h; HEK293T
# [2] = tested on: SARS-CoV-2 -1 PRF reporter mCherry-FSE-GFP(-1); test: percent effect, decrease of GFP/mCherry ratio (-1 PRF reporter) relative to controls; higher = stronger frameshift inhibition; details: 10 µM; 24 h; HEK293T
Structure (SMILES),mCherry [1],percent effect [2]
N[C@@H]1CCCC[C@H]1N.O=C([O-])C(=O)[O-].[Pt+2] [Eloxatin],104%,-8.2%
O=[N+]([O-])c1ccc(/C=C/c2cccc(CO)n2)o1 [nifurpirinol],80.9%,-3.52%
CC(C)N(CCC(c1ccccc1)c1ccccc1)C(C)C [diisopromine],83.7%,4.93%
COc1ccc(C(=O)Nc2ccccc2CCC2CCCCN2C)cc1 (configuration not stated) [encainide],96.7%,-2.12%
NCCCC[C@H](NC(=O)[C@@H](Cc1cc(Br)c(O)c(Br)c1)NC(=O)N1CCC(N2Cc3ccccc3NC2=O)CC1)C(=O)N1CCN(c2ccncc2)CC1 [olcegepant],100%,-0.139%
CCOC(=O)C(C#N)=C(c1ccccc1)c1ccccc1 [etocrilene],96.3%,-5.84%
CC1(C)S[C@@H]2[C@H](NC(=O)[C@H](NC(=O)N3CCN(S(C)(=O)=O)C3=O)c3ccccc3)C(=O)N2[C@H]1C(=O)O [Mezlin],115%,-5.09%
COc1ccc2c(c1OC)C(=O)O[C@@H]2[C@H]1c2c(cc3c(c2OC)OCO3)CCN1C [noscapine],95.1%,-3.87%
O=C(O)c1ccc(S(=O)(=O)N(Cl)Cl)cc1 [halazone],119%,-16.6%
CN(C)CCN(Cc1ccccc1)c1ccccn1,92.8%,-2.07%
CCCc1c2c(c(O)c3c(=O)cc(C(=O)O)oc13)CCCC2 [proxicromil],98.8%,-1.29%
CSCCC(N)C(=O)O (configuration not stated),147%,0.804%
Oc1cc(O)c(Cl)cn1 [gimeracil],92.2%,-4.23%
CC[C@H]1OC(=O)[C@H](C)[C@@H](O[C@H]2C[C@@](C)(OC)[C@@H](O)[C@H](C)O2)[C@H](C)[C@@H](O[C@@H]2O[C@H](C)C[C@H](N(C)C)[C@H]2O)[C@](C)(O)C[C@@H](C)/C(=N/OC)[C@H](C)[C@@H](O)[C@]1(C)O [lexithromycin],80.9%,-2.64%
CCN(CC)CCOC(=O)C(c1ccccc1)C1CCCCC1 (configuration not stated) [drofenine],110%,-3.16%
CC(C)[C@@H](C)/C=C/[C@@H](C)[C@H]1CC[C@H]2/C(=C/C=C3\C[C@@H](O)CC[C@@H]3C)CCC[C@]12C [dihydrotachysterol],86.7%,-4.54%
Cc1ccccc1C(=O)Nc1ccc(C(=O)N2CCCC(N(C)C)c3ccccc32)cc1 (configuration not stated) [mozavaptan],27.9%,-8.57%
O=C(O)COCCN1CCN([C@H](c2ccccc2)c2ccc(Cl)cc2)CC1,93.8%,0.998%
CC(C)(C)c1cc(/C=C2\SC(=N)NC2=O)cc(C(C)(C)C)c1O [darbufelone],102%,0.0571%
CC(C)Nc1cccnc1N1CCN(C(=O)c2cc3cc(NS(C)(=O)=O)ccc3[nH]2)CC1 [Delavirdine mesylate],101%,-4.87%
CC1(C)[C@@H](OC(=O)CCC(=O)O)CC[C@]2(C)[C@H]3C(=O)C=C4[C@@H]5C[C@@](C)(C(=O)O)CC[C@]5(C)CC[C@@]4(C)[C@]3(C)CC[C@@H]12,99%,-2.41%
CN[C@@H]1[C@H](O[C@H]2[C@H](O[C@H]3[C@H](O)[C@@H](O)[C@H](N=C(N)N)[C@@H](O)[C@@H]3N=C(N)N)O[C@@H](C)[C@]2(O)C=O)O[C@@H](CO)[C@H](O)[C@H]1O,109%,-13.4%

# Some of the entries so far, bar-delimited:
Structure (SMILES) | mCherry [1] | percent effect [2]
CC[C@H]1OC(=O)[C@H](C)[C@@H](O[C@H]2C[C@@](C)(OC)[C@@H](O)[C@H](C)O2)[C@H](C)[C@@H](O[C@@H]2O[C@H](C)C[C@H](N(C)C)[C@H]2O)[C@](C)(O)C[C@@H](C)/C(=N/OC)[C@H](C)[C@@H](O)[C@]1(C)O [lexithromycin] | 80.9% | -2.64%
CCN(CC)CCOC(=O)C(c1ccccc1)C1CCCCC1 (configuration not stated) [drofenine] | 110% | -3.16%
CC(C)[C@@H](C)/C=C/[C@@H](C)[C@H]1CC[C@H]2/C(=C/C=C3\C[C@@H](O)CC[C@@H]3C)CCC[C@]12C [dihydrotachysterol] | 86.7% | -4.54%
Cc1ccccc1C(=O)Nc1ccc(C(=O)N2CCCC(N(C)C)c3ccccc32)cc1 (configuration not stated) [mozavaptan] | 27.9% | -8.57%
O=C(O)COCCN1CCN([C@H](c2ccccc2)c2ccc(Cl)cc2)CC1 | 93.8% | 0.998%

# Next part.

Structure (SMILES),mCherry [1],percent effect [2]
OCC(CO)N[C@H]1C[C@](O)(CO)[C@@H](O)[C@H](O)[C@H]1O [voglibose],110%,-2.73%
CC(C)[C@H](N)C(=O)OCC(CO)OCn1cnc2c(=O)nc(N)[nH]c21 (some centres not stated) [Valcyte],105%,-6.65%
CO/N=C(\C(=O)N[C@@H]1C(=O)N2C(C(=O)O)=C(CSC(=O)c3ccco3)CS[C@H]12)c1csc(N)n1,102%,-4.23%
COc1cc(OC)c(C(=O)CCCN2CCCC2)c(OC)c1,83.2%,-1.14%
O=C1c2c(O)cccc2[C@@H](O[C@@H]2O[C@H](CO)[C@H](O)[C@@H](O)[C@H]2O)c2cc(CO)cc(O)c21,112%,-12.3%
Nc1ncnc2c1ncn2Cc1c(F)cccc1Cl [arprinocid],88.6%,-5.34%
OCCN1CCN(CC/C=C2/c3ccccc3Sc3ccc(Cl)cc32)CC1 [Zuclopenthixol],105%,-3.76%
CN(CCCCCCCCCCN(C)C(=O)Oc1cccc([N+](C)(C)C)c1)C(=O)Oc1cccc([N+](C)(C)C)c1 [Humorsol],98%,-1.32%
N[C@@H](Cc1c[nH]cn1)C(=O)O [histidine],99.1%,4.41%
CC1(C)S[C@@H]2[C@H](NC(=O)[C@H](C(=O)O)c3ccsc3)C(=O)N2[C@H]1C(=O)O,130%,-1.31%
Nc1ccc(C(=O)Oc2ccccc2)c(O)c1 [fenamisal],104%,-5.82%
CC(C)NC[C@H](O)c1ccc(O)c(O)c1 [levisoprenaline],91.1%,-1.24%
CCCOc1ccccc1-c1nc2[nH]nnc2c(=O)[nH]1 [zaprinast],76.7%,-10.9%
COc1cc(OC)nc(O[C@H](C(=O)O)C(OC)(c2ccccc2)c2ccccc2)n1 [darusentan],138%,-3.3%
O=C(c1ccccc1)c1ccc2n1CCC2C(=O)O (configuration not stated) [ketorolac],87.7%,-1.66%
Cc1onc(NS(=O)(=O)c2ccc(N)cc2)c1C [sulfatroxazole],64.2%,-1.1%
CN/C(=C\[N+](=O)[O-])NCCSCc1ccc(CN(C)C)o1 [Ranitidine·HCl],95.4%,0.437%
C/N=C(/NC#N)NCCSCc1csc(NC(=N)N)n1 [Tiotidine],107%,2.88%
CC(C)(C)NCC(O)COc1nsnc1N1CCOCC1 (configuration not stated) [Blocarden],114%,-7.37%
C[C@@H](O)[C@H](N)C(=O)O [threonine],105%,-4.01%
CC(C)CC(=O)N[C@H](C(=O)N[C@H](C(=O)N[C@@H](CC(C)C)[C@@H](O)CC(=O)N[C@@H](C)C(=O)N[C@@H](CC(C)C)[C@@H](O)CC(=O)O)C(C)C)C(C)C [pepstatin],92.8%,-0.79%
CO[C@H]1/C=C/O[C@@]2(C)Oc3c(C)c(O)c4c(O)c(c(/C=N/N5CCN(C6CCCC6)CC5)c(O)c4c3C2=O)NC(=O)/C(C)=C\C=C\[C@H](C)[C@H](O)[C@@H](C)[C@@H](O)[C@@H](C)[C@H](OC(C)=O)[C@@H]1C [Priftin],94.7%,0.362%

Structure (SMILES),mCherry [1],percent effect [2]
CN(N=O)C(=O)N[C@@H]1[C@@H](O)[C@H](O)[C@@H](CO)O[C@@H]1O [streptozocin],104%,-0.304%
O=C(O)c1ccc[n+]([O-])c1,119%,-0.177%
O=C(N[C@H]1CCS[C@H]2CCC[C@@H](C(=O)O)N2C1=O)[C@@H](S)Cc1ccccc1 [omapatrilat],92.3%,-9.78%
CC(=O)OCC(=O)[C@@]1(OC(C)=O)[C@@H](C)C[C@H]2[C@@H]3C[C@H](F)C4=CC(=O)C=C[C@]4(C)[C@@]3(F)[C@@H](O)C[C@@]21C,102%,-0.12%
COc1cc2nc(N3CCN(C(=O)C4COc5ccccc5O4)CC3)nc(N)c2cc1OC (configuration not stated) [doxazosin],61.8% and 85.1%,-5.6% and -1.91%
N[C@@H]1CCCC[C@H]1N.O=C([O-])C(=O)[O-].[Pt+2],108%,-3.73%
CCC(NC(C)C)C(O)c1ccc(O)c(O)c1 (configuration not stated),118%,2.67%
CCCCCNC(=O)c1coc([C@H]2[C@@H](Cc3ccccc3CCC(=O)O)[C@@H]3CC[C@H]2O3)n1 [ifetroban],83.1%,-4.04%
CC1=C[C@H](O)CC(C)(C)[C@H]1/C=C/C(C)=C/C=C/C(C)=C/C=C/C=C(C)/C=C/C=C(C)/C=C/C1=C(C)C[C@@H](O)CC1(C)C,86.8%,-2.38%
CC(C)(C)NC[C@H](O)COc1nsnc1N1CCOCC1 [(S)-Timolol maleate],94.6%,2.92%
CC(C)CN(C[C@@H](O)[C@H](Cc1ccccc1)NC(=O)O[C@H]1CCOC1)S(=O)(=O)c1ccc(N)cc1 [amprenavir],112%,14.9%
CCC(=O)OCC(=O)[C@@]1(OC(=O)CC)[C@@H](C)C[C@H]2[C@@H]3CCC4=CC(=O)C=C[C@]4(C)[C@@]3(Cl)[C@@H](O)C[C@@]21C,86.1%,-1.68%
CC(=O)Nc1c(I)cc(I)c(C(=O)O)c1I,113%,-2.39%
CCC(O)(c1ccccc1)c1cccc(C(F)(F)F)c1 (configuration not stated) [flumecinol],119%,-2.87%
COc1cc([C@@H]2[C@H]3CO[C@@]4(O)C(=O)[C@@H]2C=C([C@H]2Oc5cc(O)cc(O)c5C(=O)[C@@H]2O)[C@@H]34)ccc1O [Silydianin],99.5%,-1.96%
CCn1c(=O)c2c(nc(/C=C/c3ccc(OC)c(OC)c3)n2C)n(CC)c1=O [istradefylline],101%,-2.52%
CC(C)=CCC/C(C)=C/CC/C(C)=C/CCC(=O)OC/C=C(\C)CCC=C(C)C [gefarnate],98.9%,-2.37%
C[C@H]1[C@H](OC(=O)CCC(=O)O)O[C@@H]2O[C@@]3(C)CC[C@H]4[C@H](C)CC[C@@H]1[C@@]24OO3 [Artesunate],136%,-24.5%
Nc1c(CC(=O)O)cccc1C(=O)c1ccc(Br)cc1 [bromfenac],96.3%,-3.17%
C[C@@H](O)[C@H]1C(=O)N2C(C(=O)O)=C(S[C@@H]3CN[C@H](C(=O)Nc4cccc(C(=O)O)c4)C3)[C@H](C)[C@H]12 [ertapenem],106%,2.17%
CN1CCc2nc(C(=O)N[C@@H]3C[C@@H](C(=O)N(C)C)CC[C@@H]3NC(=O)C(=O)Nc3ccc(Cl)cn3)sc2C1 [Edoxaban],111%,-2.84%
CC(C)OC(=O)Nc1ccc2[nH]c(-c3cscn3)nc2c1 [cambendazole],38.7%,-8.19%
